Source: the supplement of paper PMC10849652
The other results are listed elsewhere or left out.

Chains of the proteins cited; added tags and fusions are not shown. Lines headed by an entry give the natural chain unless they say otherwise; changes in a name come on top.
UniProt Q9H0V9: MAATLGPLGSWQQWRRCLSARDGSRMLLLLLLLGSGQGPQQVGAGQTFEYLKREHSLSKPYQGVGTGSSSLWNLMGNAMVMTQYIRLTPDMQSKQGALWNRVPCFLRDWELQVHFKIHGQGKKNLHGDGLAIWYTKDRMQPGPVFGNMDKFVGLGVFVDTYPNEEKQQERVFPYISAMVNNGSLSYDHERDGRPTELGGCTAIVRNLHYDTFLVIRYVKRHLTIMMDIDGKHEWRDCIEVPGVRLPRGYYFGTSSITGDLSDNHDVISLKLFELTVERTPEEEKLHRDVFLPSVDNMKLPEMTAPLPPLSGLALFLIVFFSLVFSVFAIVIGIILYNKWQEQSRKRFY
UniProt Q9H008: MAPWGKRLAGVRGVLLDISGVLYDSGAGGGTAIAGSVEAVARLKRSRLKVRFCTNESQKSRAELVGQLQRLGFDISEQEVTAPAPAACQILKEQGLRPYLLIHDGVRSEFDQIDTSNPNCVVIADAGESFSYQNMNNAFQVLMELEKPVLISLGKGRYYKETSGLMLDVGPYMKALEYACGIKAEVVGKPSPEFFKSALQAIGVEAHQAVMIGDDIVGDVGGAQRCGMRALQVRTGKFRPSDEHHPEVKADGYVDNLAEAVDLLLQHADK
UniProt P07942: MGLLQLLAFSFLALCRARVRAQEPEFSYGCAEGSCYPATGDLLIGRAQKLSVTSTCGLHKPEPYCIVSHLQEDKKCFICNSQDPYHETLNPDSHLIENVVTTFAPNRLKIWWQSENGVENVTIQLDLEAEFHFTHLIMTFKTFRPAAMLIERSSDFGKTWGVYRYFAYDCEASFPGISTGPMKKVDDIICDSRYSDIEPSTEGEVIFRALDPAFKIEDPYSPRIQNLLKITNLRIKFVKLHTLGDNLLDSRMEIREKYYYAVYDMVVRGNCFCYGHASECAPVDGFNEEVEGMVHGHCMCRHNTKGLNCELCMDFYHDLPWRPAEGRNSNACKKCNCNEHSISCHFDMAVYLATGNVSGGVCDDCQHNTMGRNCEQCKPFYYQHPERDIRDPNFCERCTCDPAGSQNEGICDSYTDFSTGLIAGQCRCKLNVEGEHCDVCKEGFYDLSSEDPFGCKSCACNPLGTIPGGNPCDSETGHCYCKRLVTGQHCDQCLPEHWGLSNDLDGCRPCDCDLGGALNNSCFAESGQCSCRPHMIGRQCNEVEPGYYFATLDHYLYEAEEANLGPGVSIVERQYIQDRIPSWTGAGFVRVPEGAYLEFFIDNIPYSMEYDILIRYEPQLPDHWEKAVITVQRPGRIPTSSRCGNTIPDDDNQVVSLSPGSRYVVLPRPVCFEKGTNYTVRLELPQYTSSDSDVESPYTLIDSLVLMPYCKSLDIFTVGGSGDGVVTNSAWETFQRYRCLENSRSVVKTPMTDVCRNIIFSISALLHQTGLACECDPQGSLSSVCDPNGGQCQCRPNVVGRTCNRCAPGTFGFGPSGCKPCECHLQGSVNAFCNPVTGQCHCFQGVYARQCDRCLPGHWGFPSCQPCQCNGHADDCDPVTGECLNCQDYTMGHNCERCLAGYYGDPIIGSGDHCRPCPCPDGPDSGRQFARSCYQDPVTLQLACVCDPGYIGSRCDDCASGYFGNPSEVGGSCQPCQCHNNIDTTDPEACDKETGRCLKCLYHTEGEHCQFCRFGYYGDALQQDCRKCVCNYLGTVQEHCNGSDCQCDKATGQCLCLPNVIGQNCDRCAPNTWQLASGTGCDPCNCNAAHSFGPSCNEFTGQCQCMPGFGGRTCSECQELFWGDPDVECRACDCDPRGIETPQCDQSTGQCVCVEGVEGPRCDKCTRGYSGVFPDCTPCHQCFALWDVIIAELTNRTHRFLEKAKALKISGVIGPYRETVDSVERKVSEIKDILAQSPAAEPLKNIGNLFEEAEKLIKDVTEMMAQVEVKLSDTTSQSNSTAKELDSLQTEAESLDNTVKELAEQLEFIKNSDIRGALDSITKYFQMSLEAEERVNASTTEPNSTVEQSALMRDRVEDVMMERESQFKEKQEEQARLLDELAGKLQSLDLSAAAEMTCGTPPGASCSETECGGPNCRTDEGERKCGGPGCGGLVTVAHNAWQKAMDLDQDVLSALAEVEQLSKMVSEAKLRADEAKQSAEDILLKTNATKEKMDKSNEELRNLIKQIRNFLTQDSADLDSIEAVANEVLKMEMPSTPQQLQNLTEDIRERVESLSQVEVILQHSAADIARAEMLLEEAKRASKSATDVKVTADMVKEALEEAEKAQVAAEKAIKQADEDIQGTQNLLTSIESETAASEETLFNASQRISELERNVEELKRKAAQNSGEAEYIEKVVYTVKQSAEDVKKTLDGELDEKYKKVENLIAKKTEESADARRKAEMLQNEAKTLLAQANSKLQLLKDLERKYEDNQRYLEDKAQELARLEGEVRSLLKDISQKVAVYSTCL
UniProt Q9NS86: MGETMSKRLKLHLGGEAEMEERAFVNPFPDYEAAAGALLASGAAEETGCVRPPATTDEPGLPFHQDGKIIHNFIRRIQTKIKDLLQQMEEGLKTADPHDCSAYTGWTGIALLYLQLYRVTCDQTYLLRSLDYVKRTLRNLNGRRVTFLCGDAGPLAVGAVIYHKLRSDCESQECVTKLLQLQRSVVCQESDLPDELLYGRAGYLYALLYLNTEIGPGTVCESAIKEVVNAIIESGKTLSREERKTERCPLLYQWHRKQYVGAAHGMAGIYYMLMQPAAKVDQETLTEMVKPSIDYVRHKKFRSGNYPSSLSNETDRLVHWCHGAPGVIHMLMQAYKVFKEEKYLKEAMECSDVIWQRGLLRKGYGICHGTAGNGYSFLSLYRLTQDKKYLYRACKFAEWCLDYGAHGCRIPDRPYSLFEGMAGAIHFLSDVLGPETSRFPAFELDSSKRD
UniProt Q9UHA4, whole entry, looked up: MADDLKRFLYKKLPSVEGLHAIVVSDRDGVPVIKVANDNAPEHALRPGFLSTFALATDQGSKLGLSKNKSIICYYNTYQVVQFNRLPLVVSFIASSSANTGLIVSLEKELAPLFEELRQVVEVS
UniProt P48357: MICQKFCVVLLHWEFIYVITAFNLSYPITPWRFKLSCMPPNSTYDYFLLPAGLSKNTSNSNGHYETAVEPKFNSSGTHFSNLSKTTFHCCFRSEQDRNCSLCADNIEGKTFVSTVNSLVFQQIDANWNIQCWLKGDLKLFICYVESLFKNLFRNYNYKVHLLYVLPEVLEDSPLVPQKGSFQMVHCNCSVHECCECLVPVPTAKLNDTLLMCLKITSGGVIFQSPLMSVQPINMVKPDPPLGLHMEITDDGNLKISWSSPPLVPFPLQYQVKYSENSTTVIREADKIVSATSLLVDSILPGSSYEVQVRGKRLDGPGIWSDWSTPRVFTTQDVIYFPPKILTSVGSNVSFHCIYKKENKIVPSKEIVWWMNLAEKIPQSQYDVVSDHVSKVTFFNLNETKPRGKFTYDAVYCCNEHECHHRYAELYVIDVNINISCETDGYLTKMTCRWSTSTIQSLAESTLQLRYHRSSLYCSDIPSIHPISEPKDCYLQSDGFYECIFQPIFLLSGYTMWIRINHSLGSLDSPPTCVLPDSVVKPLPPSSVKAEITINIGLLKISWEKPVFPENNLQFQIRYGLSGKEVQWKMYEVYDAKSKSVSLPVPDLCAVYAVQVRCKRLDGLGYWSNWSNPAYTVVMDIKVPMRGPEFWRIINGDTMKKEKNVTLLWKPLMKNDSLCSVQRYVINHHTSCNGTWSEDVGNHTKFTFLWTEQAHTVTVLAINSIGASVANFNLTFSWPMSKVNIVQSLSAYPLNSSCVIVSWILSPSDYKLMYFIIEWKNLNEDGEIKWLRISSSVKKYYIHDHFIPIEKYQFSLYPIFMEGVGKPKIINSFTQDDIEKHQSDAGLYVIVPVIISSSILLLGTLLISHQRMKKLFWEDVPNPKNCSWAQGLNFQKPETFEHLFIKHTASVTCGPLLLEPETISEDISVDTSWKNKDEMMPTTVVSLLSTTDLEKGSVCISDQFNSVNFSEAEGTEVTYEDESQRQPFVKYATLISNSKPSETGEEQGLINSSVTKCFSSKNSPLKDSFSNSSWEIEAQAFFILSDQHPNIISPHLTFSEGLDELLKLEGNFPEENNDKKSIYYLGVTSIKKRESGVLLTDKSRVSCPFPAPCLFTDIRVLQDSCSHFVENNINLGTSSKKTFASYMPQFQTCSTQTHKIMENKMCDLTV
UniProt Q14657: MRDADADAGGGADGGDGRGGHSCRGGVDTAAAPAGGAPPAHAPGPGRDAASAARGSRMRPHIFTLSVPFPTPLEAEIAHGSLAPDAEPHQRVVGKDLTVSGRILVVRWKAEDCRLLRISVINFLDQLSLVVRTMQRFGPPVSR
UniProt Q96BZ8: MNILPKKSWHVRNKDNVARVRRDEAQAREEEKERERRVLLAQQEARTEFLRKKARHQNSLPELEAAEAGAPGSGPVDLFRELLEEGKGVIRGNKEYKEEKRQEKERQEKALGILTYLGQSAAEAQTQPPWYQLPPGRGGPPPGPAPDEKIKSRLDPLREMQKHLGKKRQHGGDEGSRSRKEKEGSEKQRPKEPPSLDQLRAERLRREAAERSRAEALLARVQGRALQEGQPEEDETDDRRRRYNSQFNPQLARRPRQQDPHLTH
UniProt Q86U70: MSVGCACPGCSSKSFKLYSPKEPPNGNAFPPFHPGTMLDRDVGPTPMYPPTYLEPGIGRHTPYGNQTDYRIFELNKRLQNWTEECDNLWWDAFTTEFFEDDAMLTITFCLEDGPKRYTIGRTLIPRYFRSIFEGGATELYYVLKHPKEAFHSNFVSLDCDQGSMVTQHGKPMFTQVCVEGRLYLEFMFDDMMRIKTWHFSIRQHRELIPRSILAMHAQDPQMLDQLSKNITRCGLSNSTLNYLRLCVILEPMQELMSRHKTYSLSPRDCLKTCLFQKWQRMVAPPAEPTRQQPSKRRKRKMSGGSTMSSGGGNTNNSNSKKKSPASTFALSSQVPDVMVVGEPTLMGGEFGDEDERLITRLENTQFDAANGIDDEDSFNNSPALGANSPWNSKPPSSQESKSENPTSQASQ
UniProt Q9Y4W2: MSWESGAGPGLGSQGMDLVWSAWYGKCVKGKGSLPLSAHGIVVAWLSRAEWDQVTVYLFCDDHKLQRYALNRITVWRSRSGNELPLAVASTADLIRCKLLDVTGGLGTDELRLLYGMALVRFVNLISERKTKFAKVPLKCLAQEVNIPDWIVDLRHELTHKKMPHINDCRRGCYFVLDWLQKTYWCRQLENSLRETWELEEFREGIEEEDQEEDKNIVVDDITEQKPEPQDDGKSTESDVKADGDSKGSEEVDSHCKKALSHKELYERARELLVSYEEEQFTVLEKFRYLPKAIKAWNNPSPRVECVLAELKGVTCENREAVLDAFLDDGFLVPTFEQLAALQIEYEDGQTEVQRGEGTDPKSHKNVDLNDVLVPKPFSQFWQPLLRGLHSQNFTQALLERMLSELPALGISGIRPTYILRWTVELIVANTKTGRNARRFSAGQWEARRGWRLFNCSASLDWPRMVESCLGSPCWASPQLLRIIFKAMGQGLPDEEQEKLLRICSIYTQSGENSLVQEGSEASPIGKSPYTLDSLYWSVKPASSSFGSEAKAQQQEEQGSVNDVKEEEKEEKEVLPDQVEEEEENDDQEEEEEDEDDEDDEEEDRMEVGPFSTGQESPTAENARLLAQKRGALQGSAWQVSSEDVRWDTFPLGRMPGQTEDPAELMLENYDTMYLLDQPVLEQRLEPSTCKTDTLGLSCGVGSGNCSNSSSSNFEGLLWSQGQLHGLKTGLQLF
UniProt P28838: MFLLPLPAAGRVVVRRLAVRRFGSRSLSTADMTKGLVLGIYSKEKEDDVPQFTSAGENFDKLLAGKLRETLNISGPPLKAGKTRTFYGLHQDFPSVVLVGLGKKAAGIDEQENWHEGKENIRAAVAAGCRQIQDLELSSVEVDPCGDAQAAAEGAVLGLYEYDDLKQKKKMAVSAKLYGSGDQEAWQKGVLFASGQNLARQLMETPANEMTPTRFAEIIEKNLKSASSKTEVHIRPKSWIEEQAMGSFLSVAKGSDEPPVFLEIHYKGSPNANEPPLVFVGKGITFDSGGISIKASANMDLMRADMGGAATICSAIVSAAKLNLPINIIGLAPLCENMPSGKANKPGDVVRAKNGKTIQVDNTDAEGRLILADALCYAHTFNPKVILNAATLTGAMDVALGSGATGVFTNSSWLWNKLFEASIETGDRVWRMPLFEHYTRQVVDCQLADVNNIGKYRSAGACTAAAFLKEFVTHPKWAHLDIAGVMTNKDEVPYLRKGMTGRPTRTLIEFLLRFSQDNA
UniProt P02750: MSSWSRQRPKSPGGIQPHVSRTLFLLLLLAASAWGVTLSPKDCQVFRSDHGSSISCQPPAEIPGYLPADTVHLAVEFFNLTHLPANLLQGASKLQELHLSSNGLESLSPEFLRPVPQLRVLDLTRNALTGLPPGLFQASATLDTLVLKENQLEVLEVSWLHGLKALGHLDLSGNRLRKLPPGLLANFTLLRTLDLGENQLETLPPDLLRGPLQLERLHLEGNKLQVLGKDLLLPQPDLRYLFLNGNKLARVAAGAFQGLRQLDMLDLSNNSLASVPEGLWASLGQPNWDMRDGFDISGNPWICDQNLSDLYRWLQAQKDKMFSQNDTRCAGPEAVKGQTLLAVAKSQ

How the values were obtained:
Experiment in all cases: log2 fold change, soluble protein after heating vs DMSO (PISA); higher = thermal stabilisation; K562 cells, 10 uM, 30 min; active = over 0.2 and 3.5 SD of the protein, either way, in both replicates (recomputed)
[1] = compound: CS(=O)(=O)c1ccc(-c2cnc(N)c(C(=O)Nc3ccccc3)n2)cc1
In short: (§1)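 K562 cells at 2×10^6 cells/mL were exposed to 10 μM compound for 30 min, then aliquots were heated for 3 min across 48°C-58°C, pooled, and extracted in PBS containing 0.5% NP-40 at 4°C. The supernatant after 21,000xg for 90 min was taken as soluble protein and measured by TMTpro 16plex LC-MS/MS with channel sums equalised. Thermal stability is reported relative to control samples, with values from duplicates. Fold changes are given on a log2 scale.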

[2] = compound: C[C@@H](Oc1cc(-c2cnn(C3CCNCC3)c2)cnc1N)c1c(Cl)ccc(F)c1Cl [crizotinib]
In short: as §1

[3] = compound: C[C@@H]1COCCN1C2=NC(=NC(=C2)C3(CC3)S(=O)(=O)C)C4=C5C=CNC5=CC=C4
In short: as §1

[4] = compound: C[C@H](C1=CC=C(C=C1)C(=O)NC2=C3C=CNC3=NC=C2)N
In short: as §1

[5] = compound: C[C@H](Nc1ncnc2nc[nH]c12)c1cc2cccc(Cl)c2c(=O)n1-c1ccccc1 [duvelisib]
In short: as §1

[6] = compound: Cc1cc(Nc2cc(CN3CCOCC3)c3nc(C)c(Cc4ccc(Cl)cc4F)n3n2)n[nH]1 [gandotinib]
In short: as §1

[7] = compound: Cc1cc(Nc2cc(N3CCN(C)CC3)nc(Sc3ccc(NC(=O)C4CC4)cc3)n2)n[nH]1 [tozasertib]
In short: as §1

[8] = compound: Cc1cc(SCc2sc(-c3ccc(C(F)(F)F)cc3)nc2C)ccc1OCC(=O)O
In short: as §1

[9] = compound: Cc1ccc(-n2nc(C(C)(C)C)cc2NC(=O)Nc2ccc(OCCN3CCOCC3)c3ccccc23)cc1 [doramapimod]
In short: as §1

[10] = compound: Cc1ccc(C(=O)N(CCCN)[C@@H](c2nc3cc(Cl)ccc3c(=O)n2Cc2ccccc2)C(C)C)cc1 [ispinesib]
In short: as §1

Measured: log2 fold change

LLPH (UniProt Q9BRT6)
inactive: [1] -0.095 | [2] -0.034 | [3] -0.562 | [4] 0.51 | [5] -0.405 | [6] 0.393 | [7] 0.015 | [8] -0.071 | [9] 0.219 | [10] -0.201

LMAN2L isoform 2 (UniProt Q9H0V9)
inactive: [1] 0.075 | [2] 0.029 | [3] 0 | [4] 0.003 | [5] -0.021 | [6] -0.017 | [7] 0 | [8] 0.01 | [9] -0.009 | [10] -0.036

LHPP (UniProt Q9H008)
inactive: [1] 0.108 | [2] -0.046 | [3] -0.038 | [4] -0.048 | [5] 0.086 | [6] 0 | [7] -0.052 | [8] 0.013 | [9] -0.022 | [10] -0.001

LDHA isoform 3 (UniProt P00338)
inactive: [1] 0.005 | [2] 0.029 | [3] 0.062 | [4] -0.079 | [5] 0.013 | [6] 0.005 | [7] -0.014 | [8] -0.012 | [9] -0.015 | [10] 0.05

LRRC41 (UniProt Q15345)
inactive: [1] -0.156

LAMB1 (UniProt P07942)
inactive: [1] 0.034 | [2] 0.059 | [3] 0 | [4] 0.033 | [5] -0.075 | [6] 0.01 | [7] -0.001 | [8] 0.226 | [9] 0.027 | [10] -0.002

LANCL2 (UniProt Q9NS86)
inactive: [1] 0.007 | [2] 0.019 | [3] -0.018 | [4] -0.034 | [5] 0.008 | [6] 0.164 | [7] -0.02 | [8] -0.039 | [9] 0.005 | [10] 0.021

LMAN2 (UniProt Q12907)
inactive: [1] 0.04 | [2] 0.046 | [3] 0.087 | [4] -0.008 | [5] 0.011 | [6] 0.013 | [7] -0.01 | [8] 0.017 | [9] -0.007 | [10] -0.043

LAMTOR3 (UniProt Q9UHA4)
inactive: [1] -0.118 | [2] -0.091 | [3] -0.079 | [4] 0.02 | [5] -0.04 | [6] 0.057 | [7] -0.002 | [8] 0.003 | [9] 0.02 | [10] -0.173

LPCAT2 (UniProt Q7L5N7)
inactive: [1] 0.067 | [2] -0.022 | [3] 0.169 | [4] 0.139 | [5] 0.038 | [6] -0.028 | [7] 0.043 | [8] 0.034 | [9] 0.034 | [10] -0.141

LACTB (UniProt P83111)
inactive: [1] -0.044 | [2] -0.021 | [3] -0.033 | [4] 0.216 | [5] -0.087 | [6] 0.036 | [7] -0.061 | [8] -0.065 | [9] 0.071 | [10] -0.236

LEPR (UniProt P48357)
inactive: [1] 0.028 | [2] 0.002 | [3] 0.003 | [4] -0.038 | [5] 0.059 | [6] 0.049 | [7] -0.019 | [8] -0.023 | [9] -0.002 | [10] 0.006

LAGE3 (UniProt Q14657)
inactive: [1] 0.046 | [2] 0.088 | [3] 0.022 | [4] -0.03 | [5] 0.094 | [6] 0.046 | [7] -0.035 | [8] -0.052 | [9] 0.052 | [10] 0.08

LENG1 (UniProt Q96BZ8)
inactive: [1] -0.037 | [2] 0.055 | [3] 0.028 | [4] 0.007 | [5] 0.054 | [6] 0.049 | [7] -0.06 | [8] -0.034 | [9] 0.011 | [10] -0.011

LASP1 (UniProt Q14847)
inactive: [1] -0.041 | [2] -0.004 | [3] -0.026 | [4] -0.08 | [5] 0 | [6] -0.017 | [7] -0.009 | [8] -0.078 | [9] -0.032 | [10] 0

LRRC57 (UniProt Q8N9N7)
inactive: [1] 0.047 | [2] -0.004 | [3] 0.066 | [4] -0.102 | [5] 0.028 | [6] -0.084 | [7] -0.052 | [8] 0.012 | [9] -0.015 | [10] 0.081

LDB1 (UniProt Q86U70)
inactive: [1] -0.017 | [2] 0.033 | [3] -0.055 | [4] -0.017 | [5] 0.009 | [6] -0.002 | [7] -0.024 | [8] -0.038 | [9] 0.016 | [10] 0.04

Two neighbouring entries already listed:
LAGE3 (UniProt Q14657)
inactive: [1] 0.046 | [2] 0.088 | [3] 0.022 | [4] -0.03 | [5] 0.094 | [6] 0.046 | [7] -0.035 | [8] -0.052 | [9] 0.052 | [10] 0.08

LENG1 (UniProt Q96BZ8)
inactive: [1] -0.037 | [2] 0.055 | [3] 0.028 | [4] 0.007 | [5] 0.054 | [6] 0.049 | [7] -0.06 | [8] -0.034 | [9] 0.011 | [10] -0.011

The listing continues:

LAS1L (UniProt Q9Y4W2)
inactive: [1] 0.155 | [2] -0.057 | [3] -0.161 | [4] 0.317 | [5] -0.306 | [6] 0.161 | [7] 0.104 | [8] 0.132 | [9] 0.28 | [10] -0.016

LETM1 (UniProt O95202)
inactive: [1] -0.001 | [2] -0.056 | [3] 0.072 | [4] -0.102 | [5] 0.012 | [6] -0.046 | [7] 0.008 | [8] 0.014 | [9] -0.009 | [10] 0.073

LRRC59 (UniProt Q96AG4)
inactive: [1] -0.019 | [2] 0 | [3] -0.02 | [4] -0.014 | [5] 0.025 | [6] -0.008 | [7] -0.022 | [8] 0 | [9] -0.023 | [10] 0.045

LAMTOR4 (UniProt Q0VGL1)
inactive: [1] -0.158 | [2] -0.063 | [3] -0.182 | [4] 0.071 | [5] -0.007 | [6] 0.061 | [7] 0.048 | [8] 0.002 | [9] -0.063 | [10] -0.124

LCMT1 (UniProt Q9UIC8)
inactive: [1] 0.052 | [2] -0.021 | [3] 0.034 | [4] -0.064 | [5] 0.018 | [6] -0.101 | [7] 0.015 | [8] -0.006 | [9] 0.008 | [10] 0.047

LAP3 (UniProt P28838)
inactive: [1] 0.007 | [2] 0.036 | [3] 0.051 | [4] -0.079 | [5] 0.02 | [6] -0.044 | [7] -0.016 | [8] -0.028 | [9] -0.036 | [10] 0.025

LRRC47 (UniProt Q8N1G4)
inactive: [1] 0.012 | [2] -0.002 | [3] 0.047 | [4] -0.089 | [5] 0 | [6] -0.013 | [7] 0.03 | [8] 0.011 | [9] -0.008 | [10] 0.044

LDHB (UniProt P07195)
inactive: [1] 0.034 | [2] 0.039 | [3] 0.056 | [4] -0.052 | [5] 0.017 | [6] -0.025 | [7] -0.039 | [8] -0.019 | [9] -0.01 | [10] -0.03

LRG1 (UniProt P02750)
inactive: [1] -0.337 | [2] -0.002 | [3] 0.308 | [4] 0.132 | [5] 0.28 | [6] 0.068 | [7] 0.407 | [8] -0.014 | [9] 0 | [10] 0.189

LAMTOR2 (UniProt Q9Y2Q5)
inactive: [1] -0.112 | [2] -0.076 | [3] -0.144 | [4] 0.041 | [5] 0.01 | [6] 0.083 | [7] 0.019 | [8] 0.016 | [9] 0.069 | [10] -0.195

LPCAT1 (UniProt Q8NF37)
inactive: [1] 0.052 | [2] -0.058 | [3] 0.088 | [4] -0.035 | [5] 0.041 | [6] -0.199 | [7] -0.067 | [8] -0.023 | [9] -0.06 | [10] 0.077

LAMTOR5 (UniProt O43504)
inactive: [1] -0.111 | [2] -0.158 | [3] 0.226 | [4] 0.1 | [5] 0.149 | [6] -0.061 | [7] 0.142 | [8] -0.139 | [9] 0.13 | [10] 0.04

LCLAT1 (UniProt Q6UWP7)
inactive: [1] -0.042 | [2] 0.172 | [3] 0.022 | [4] -0.02 | [5] 0.022 | [6] -0.047 | [7] -0.031 | [8] -0.064 | [9] 0 | [10] 0.155

LCP1 (UniProt P13796)
inactive: [1] 0.008 | [2] 0.03 | [3] 0.01 | [4] -0.047 | [5] -0.009 | [6] -0.009 | [7] -0.014 | [8] -0.053 | [9] -0.016 | [10] 0.04
